Assay results reported in patent publication US20120316113A1, “FGF BASED FIBRIN BINDING PEPTIDES” (Baxter Healthcare S.A., priority 2011, published 2012).
No constants are given. Whether binding was seen depends on the method and setting. Some binding calls cover weakened binding; strength is not graded here.

The chains behind the UniProt entries cited, without tags or fusion partners. Where a name states a change or a piece, a line headed by the entry shows the natural chain unless it says otherwise.
UniProt P02671: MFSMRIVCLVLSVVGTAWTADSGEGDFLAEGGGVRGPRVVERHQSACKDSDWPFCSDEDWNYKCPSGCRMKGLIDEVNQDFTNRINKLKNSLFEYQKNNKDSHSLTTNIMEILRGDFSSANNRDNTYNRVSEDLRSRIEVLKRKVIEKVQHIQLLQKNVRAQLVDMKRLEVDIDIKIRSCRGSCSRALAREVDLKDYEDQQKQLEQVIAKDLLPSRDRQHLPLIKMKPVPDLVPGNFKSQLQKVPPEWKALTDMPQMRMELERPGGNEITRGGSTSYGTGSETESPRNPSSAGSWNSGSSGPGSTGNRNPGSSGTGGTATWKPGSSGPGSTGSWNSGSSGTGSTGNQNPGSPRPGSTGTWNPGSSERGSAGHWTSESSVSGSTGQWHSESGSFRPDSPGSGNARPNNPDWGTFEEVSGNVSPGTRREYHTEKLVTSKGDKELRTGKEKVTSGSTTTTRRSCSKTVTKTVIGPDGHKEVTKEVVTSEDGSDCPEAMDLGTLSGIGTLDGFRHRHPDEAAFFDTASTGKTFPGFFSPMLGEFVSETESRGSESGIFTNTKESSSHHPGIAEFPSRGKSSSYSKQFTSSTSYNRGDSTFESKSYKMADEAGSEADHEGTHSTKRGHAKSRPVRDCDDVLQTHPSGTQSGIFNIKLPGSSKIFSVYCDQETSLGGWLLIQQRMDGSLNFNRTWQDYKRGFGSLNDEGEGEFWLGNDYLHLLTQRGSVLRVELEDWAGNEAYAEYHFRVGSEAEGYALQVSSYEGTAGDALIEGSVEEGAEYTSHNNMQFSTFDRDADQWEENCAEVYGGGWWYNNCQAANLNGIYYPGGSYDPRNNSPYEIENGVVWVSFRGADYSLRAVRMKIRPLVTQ
UniProt P09038: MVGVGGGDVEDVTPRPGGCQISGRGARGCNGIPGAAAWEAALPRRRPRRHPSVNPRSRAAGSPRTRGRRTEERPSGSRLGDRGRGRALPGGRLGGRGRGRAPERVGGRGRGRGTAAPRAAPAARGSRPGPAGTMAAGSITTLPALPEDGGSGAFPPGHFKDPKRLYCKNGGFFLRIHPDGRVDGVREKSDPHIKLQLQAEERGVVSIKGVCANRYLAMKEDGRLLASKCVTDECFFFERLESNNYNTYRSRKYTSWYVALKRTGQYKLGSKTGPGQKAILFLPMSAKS

Assays:
[1] = molecular target: fibrinogen (Tisseel, Baxter AG, Vienna) (UniProt P02671); experiment: SPR, fibrinogen amine-coupled to a gold chip; fitted association curves
[2] = molecular target: fibrinogen (Tisseel, Baxter AG, Vienna) (UniProt P02671); experiment: SPR, fibrinogen amine-coupled to a gold chip
[3] = molecular target: fibrinogen (Tisseel, Baxter AG, Vienna) (UniProt P02671); experiment: ELISA on coated fibrinogen, anti-His6-peroxidase detection

Measured: binding

recombinant full-length human Fibroblast Growth Factor 2 with C-terminal 6x HIS-tag (from UniProt P09038 134-288) (ligand)
binds: all assays above
